Measurements published in the supplement of paper PMC11732987, “Enantioselective OTUD7B fragment discovery through chemoproteomics screening and high-throughput optimisation” (Communications Chemistry, 2025).
This is one part of the list. The data scatter; read single values as rough.

Experiments:
[1] = compound: ClCC(=O)N[C@@H]1CCCc2ccccc12; assay: log2 mean competition ratio of IA-DTB cysteine labelling (DMSO/compound) (log2 ratio); higher = stronger cysteine engagement by compound; details: treatment time: 4 h, cell line lysate: HEK293T
Description: (§1)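 IA-DTB competitive cysteine chemoproteomics in HEK293T RIPA lysate. Lysates were treated with compound 29 or 30 at 50 or 200 µM for 4 h, then IA-DTB (500 µM, 1 h), trypsin-digested, NeutrAvidin-enriched and analysed by diaPASEF. Competition ratio = intensity DMSO / intensity compound (n=4 treated, n=64 DMSO); binding: mean log2 CR ≥ 1 and p ≤ 0.05 plus QC filters. Target is the cysteine site.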

[2] = compound: ClCC(=O)N[C@H]1CCCc2ccccc12; assay: as above; details: treatment time: 4 h, cell line lysate: HEK293T
Description: as §1

Target | log2 mean competition ratio ([1]; 50 µM) | log2 mean competition ratio ([1]; 200 µM) | log2 mean competition ratio ([2]; 50 µM) | log2 mean competition ratio ([2]; 200 µM)
CNNM4 C220 (UniProt Q6P4Q7) | 0.000495 | 0.00299 | -0.124 | -0.000278
COPB2 C741 (UniProt P35606) | 0.0857 | 0.207 | – | –
COIL C170 (UniProt P38432) | 0.149 | -0.144 | 0.0311 | 0.00803
CNP C158 (UniProt P09543) | 0.173 | 0.0389 | – | –
CLMN C508 | -0.516 | -0.615 | – | -0.362
COQ8A C406 (UniProt Q8NI60) | -0.0329 | 0.00814 | – | –
COG1 C87 (UniProt Q8WTW3) | 0.00713 | 0.201 | – | –
CNOT7 C67 | 0.00655 | -0.182 | – | –
CIAO3 C453 (UniProt Q9H6Q4) | 0.371 | -0.223 | – | –
COQ8B C415 (UniProt Q96D53) | -0.161 | 0.107 | – | –
CHD6 C172 (UniProt Q8TD26) | 0.136 | 0.0896 | – | –
CKAP5 C1317 (UniProt Q14008) | 0.113 | 0.0451 | – | –
COA7 C172 (UniProt Q96BR5) | -0.138 | 0.127 | – | 0.136
CLTC C1528 (UniProt Q00610) | -0.32 | 0.11 | – | 0.239
CLK3 C294 (UniProt P49761) | 0.0193 | 0.25 | -0.0717 | 0.122
CHD8 C2378 (UniProt Q9HCK8) | 0.29 | 0.0432 | 0.0832 | 0.173
CLPX C538 (UniProt O76031) | 0.0392 | -0.0715 | – | –
CIAO1 C234 (UniProt O76071) | -0.597 | 0.257 | 0.0818 | 0.176
CLTCL1 C892 (UniProt P53675) | -0.0152 | -0.0573 | 0.111 | 0.378
CNOT4 C175 (UniProt O95628) | -0.179 | -0.0842 | -0.466 | -0.0974
CNTRL C1375 (UniProt Q7Z7A1) | -0.369 | 0.426 | – | –
COG3 C564 (UniProt Q96JB2) | 0.279 | -0.114 | – | –
CLUH C184 | 0.000718 | -0.0964 | – | –
CLMN C438 | -0.0539 | 0.531 | – | –
COPS4 C255 (UniProt Q9BT78) | 0.186 | 0.0881 | – | –
CLMN C445 | -0.136 | -0.22 | -0.00685 | 0.228
COL4A2 C42 (UniProt P08572) | 0.0191 | 0.163 | – | –

Target | log2 mean competition ratio ([1]; 50 µM) | log2 mean competition ratio ([1]; 200 µM) | log2 mean competition ratio ([2]; 50 µM) | log2 mean competition ratio ([2]; 200 µM)
COMMD3 C90 (UniProt Q9UBI1) | -0.299 | 0.123 | – | –
COG4 C310 (UniProt Q9H9E3) | -0.0109 | -0.0265 | 0.0173 | -0.0501
CNOT1 C50 (UniProt A5YKK6) | 0.161 | -0.0149 | – | –
CIC C1420 | -0.0779 | 0.0272 | – | –
CHD8 C1655 (UniProt Q9HCK8) | -0.112 | 0.045 | – | –
CLTCL1 C753 (UniProt P53675) | 0.558 | -0.0393 | – | –
CIAO1 C212 (UniProt O76071) | -0.215 | 0.0338 | – | –
CPVL C320 (UniProt Q9H3G5) | 0.0747 | -0.113 | – | -0.0929
CNPY3 C194 (UniProt Q9BT09) | 0.0779 | 0.213 | – | –
CPSF3 C358 (UniProt Q9UKF6) | -0.248 | -0.00851 | – | –
COPS2 C179 (UniProt P61201) | -0.534 | 0.0512 | -0.266 | -0.367
CLIC4 C234 (UniProt Q9Y696) | -0.024 | -0.358 | 0.372 | -0.421
CLCN7 C211 (UniProt P51798) | 0.176 | -0.134 | -0.323 | -0.263
CLTB C199 (UniProt P09497) | 0.0824 | -0.129 | 0.119 | 0.13
COG6 C234 (UniProt Q9Y2V7) | -0.0491 | 0.352 | -0.126 | 0.335
COBL C654 (UniProt O75128) | -0.00865 | -0.125 | -0.192 | -0.18
COG2 C287 (UniProt Q14746) | 0.469 | 0.203 | 0.253 | -0.0345
COPA C580 (UniProt P53621) | 0.169 | -0.0252 | 0.408 | 0.00664
CINP C120 (UniProt Q9BW66) | -0.241 | -0.19 | -0.755 | 0.0552
CNBP C158 (UniProt P62633) | 0.277 | -0.266 | 0.429 | -0.279
COPA C245 (UniProt P53621) | -0.151 | -0.057 | 0.305 | 0.0814
CPNE3 C54 (UniProt O75131) | 0.447 | -0.228 | 0.303 | 0.194
CHD8 C1780 (UniProt Q9HCK8) | 0.186 | 0.00846 | 0.0605 | 0.166
CPS1 C761 (UniProt P31327) | 0.237 | -0.0357 | 0.517 | -0.058
CMIP C623 (UniProt Q8IY22) | -0.122 | -0.172 | -0.165 | 0.0807
CPSF4 C55 (UniProt O95639) | -0.0595 | 0.253 | -0.352 | 0.372
COBL C993 (UniProt O75128) | 0.0174 | 0.00319 | 0.0475 | -0.0249

Single records, as listed above. Order of values: log2 mean competition ratio ([1]; 50 µM)	log2 mean competition ratio ([1]; 200 µM)	log2 mean competition ratio ([2]; 50 µM)	log2 mean competition ratio ([2]; 200 µM)
CINP C120 (UniProt Q9BW66) as listed: -0.241	-0.19	-0.755	0.0552
CPSF3 C358 (UniProt Q9UKF6) as listed: -0.248	-0.00851	–	–
CNOT1 C50 (UniProt A5YKK6) as listed: 0.161	-0.0149	–	–

Continued.

Target | log2 mean competition ratio ([1]; 50 µM) | log2 mean competition ratio ([1]; 200 µM) | log2 mean competition ratio ([2]; 50 µM) | log2 mean competition ratio ([2]; 200 µM)
CNOT6 C451 (UniProt Q9ULM6) | 0.13 | 0.0344 | -0.108 | 0.0179
CLASP2 C198 (UniProt O75122) | 0.244 | 0.272 | 0.399 | 0.139
CPOX C373 (UniProt P36551) | 0.354 | 0.335 | 0.0872 | 0.401
CRACR2A C291 (UniProt Q9BSW2) | 0.246 | -0.222 | 0.113 | -0.399
CRACR2A C494 (UniProt Q9BSW2) | -0.159 | -0.206 | -0.317 | 0.0122
CLASP1 C1423 (UniProt Q7Z460) | -0.358 | 0.109 | 0.193 | 0.071
COX20 C29 (UniProt Q5RI15) | 0.0941 | 0.476 | -0.12 | 0.49
CRACD C1228 | 0.00567 | -0.017 | -0.284 | 0.14
COPA C514 (UniProt P53621) | -0.163 | 0.0614 | -0.245 | -0.0654
CORO7 C34 (UniProt P57737) | -0.14 | 0.33 | -0.029 | 0.309
COG4 C240 (UniProt Q9H9E3) | 0.256 | -0.0883 | 0.267 | -0.179
CPNE3 C249 (UniProt O75131) | -0.069 | -0.0328 | 0.211 | -0.029
COPG1 C129 (UniProt Q9Y678) | 0.329 | 0.353 | 0.297 | 0.244
COG8 C96 (UniProt Q96MW5) | -0.0136 | 0.672 | 0.0993 | 0.596
CNBP C57 (UniProt P62633) | 0.271 | -0.465 | 0.125 | -0.321
CLCN7 C637 (UniProt P51798) | -0.0563 | -0.178 | 0.487 | 0.0852
CLTCL1 C778 (UniProt P53675) | -0.00557 | -0.693 | -0.048 | -0.605
CMAS C394 (UniProt Q8NFW8) | 0.0136 | -0.00788 | 0.0629 | -0.0683
CRACR2A C341 (UniProt Q9BSW2) | 0.305 | 0.0567 | 0.0788 | 0.142
CNNM3 C625 (UniProt Q8NE01) | -0.226 | -0.188 | 0.146 | -0.256
CISD3 C109 (UniProt P0C7P0) | 0.365 | 0.0397 | 0.361 | -0.0406
CNKSR3 C191 | -0.153 | 0.303 | -0.211 | 0.385
COBLL1 C335 (UniProt Q53SF7) | 0.0179 | -0.0983 | -0.0809 | -0.0237
CNOT1 C890 (UniProt A5YKK6) | 0.0211 | -0.231 | 0.37 | -0.152
CKAP2L C124 (UniProt Q8IYA6) | 0.0432 | -0.152 | 0.547 | -0.213
CLTCL1 C1205 (UniProt P53675) | 0.315 | 0.159 | -0.362 | 0.19
COBLL1 C177 (UniProt Q53SF7) | 0.295 | 0.16 | -0.457 | -0.131

Retrieved one by one from above, 2 records:
Target | log2 mean competition ratio ([1]; 50 µM) | log2 mean competition ratio ([1]; 200 µM) | log2 mean competition ratio ([2]; 50 µM) | log2 mean competition ratio ([2]; 200 µM)
COBLL1 C177 (UniProt Q53SF7) | 0.295 | 0.16 | -0.457 | -0.131
CKAP2L C124 (UniProt Q8IYA6) | 0.0432 | -0.152 | 0.547 | -0.213

Following part

Target | log2 mean competition ratio ([1]; 50 µM) | log2 mean competition ratio ([1]; 200 µM) | log2 mean competition ratio ([2]; 50 µM) | log2 mean competition ratio ([2]; 200 µM)
CNBP C111 (UniProt P62633) | -0.189 | 0.158 | -0.153 | 0.322
COA5 C14 (UniProt Q86WW8) | 0.204 | 0.0606 | 0.182 | 0.0996
CLSPN C397 (UniProt Q9HAW4) | -0.616 | 0.805 | -0.305 | 0.459
CNP C111 (UniProt P09543) | -0.126 | 0.0906 | -0.184 | 0.251
COMMD4 C34 (UniProt Q9H0A8) | 0.0639 | -0.145 | 0.425 | -0.394
COG2 C358 (UniProt Q14746) | -0.166 | 0.187 | -0.0861 | 0.00638
CMTR1 C504 (UniProt Q8N1G2) | -0.27 | -0.0239 | -0.314 | -0.117
CLUH C200 | -0.0484 | -0.0353 | -0.452 | -0.245
CMTM3 C38 (UniProt Q96MX0) | 0.373 | 0.149 | -0.0159 | 0.193
COIL C126 (UniProt P38432) | -0.198 | 0.0401 | 0.0885 | 0.234
CLTC C753 (UniProt Q00610) | -0.13 | 0.0195 | -0.16 | 0.1
CLSPN C763 (UniProt Q9HAW4) | -0.443 | -0.151 | -0.207 | -0.283
CPSF3 C345 (UniProt Q9UKF6) | -0.354 | -0.204 | 0.286 | -0.0477
CHUK C658 (UniProt O15111) | 0.351 | -0.0469 | 0.216 | -0.0314
CPSF6 C159 (UniProt Q16630) | -0.126 | -0.0504 | 0.156 | -0.0954
CLUH C732 | 0.152 | 0.0733 | -0.552 | 0.0378
CKAP5 C592 (UniProt Q14008) | -0.26 | 0.0474 | -0.113 | -0.0255
COL25A1 C27 (UniProt Q9BXS0) | -0.144 | 0.318 | -0.104 | 0.328
CHD4 C452 | -0.31 | 0.157 | 0.111 | -0.026
CKAP2L C44 (UniProt Q8IYA6) | 0.00668 | -0.136 | -0.157 | -0.298
CPSF4 C124 (UniProt O95639) | 0.199 | 0.518 | 0.389 | 0.437
CNN2 C215 (UniProt Q99439) | 0.199 | 0.0957 | 0.357 | 0.272
COPB2 C56 (UniProt P35606) | -0.198 | -0.199 | -0.511 | -0.0571
COPS7B C240 (UniProt Q9H9Q2) | 0.00674 | -0.165 | -0.206 | -0.237
